From PubChem BioAssay AID2685 (National Center for Advancing Translational Sciences (NCATS), 2010) come the findings set out here.

The term AC50 denotes the concentration at which the activity in the assay is half-maximal. Low readings indicate greater potency, high ones weaker potency.

The test in a line: qHTS Assay for Lipid Storage Modulators in Drosophila S3 Cells.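 On cell number change: cells counted by Cell Tracker Red CMTPX staining in the red channel.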 Particulars: BODIPY lipid droplet fluorescence, 18-24 h; for cell number change: measured here: cell count max response, cells fed with added oleic acid. In short, it runs like this: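 Laser-scanning cytometry quantifies lipid droplet accumulation (500–530 nm total intensity; droplet/cell object ratio) in oleic acid-fed (400 uM added) Drosophila S3 cells treated with a concentration series. 20 uM Triacsin C defined 100% inhibition.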
(In general: qHTS replaces the single test concentration by a dilution series.)

[1] abbreviates: measured here: lipid fluorescence (Fed channel) AC50, cells fed with added oleic acid.
Where [2] appears, read: measured here: cell number channel AC50, cells fed with added oleic acid.

Molecules are shown by their SMILES. The list shows a part of the results. These are further read-outs of the screen, such as a control signal, another cell line or another target. No call is given for them. Most of these compounds were active or inconclusive in the main read-out, so they are no random draw. Words in brackets tell the shape of the fitted curve; partial curves, single points and poor fits give uncertain potencies.

As for `Cc1ccc(O)c(C(=O)c2cnn(C(=O)c3cccc(S(=O)(=O)N(C)C)c3)c2)c1`, the cell number change was determined as 21.9%. Same read-out and setting: the result for `Cc1ccc(NC(=O)OCc2cn(-c3ccc(Cl)cc3)nn2)cc1` reads -45.5%. On to `Cc1nn(-c2ccccn2)c2c1C(c1ccsc1)C1=C(CCCC1=O)N2` (stereo not drawn), for which the cell number change turned out to be 0.609%. The AC50 under setting [1] is 0.0651 µM [rising, full curve]. Take `O=C(O)C1C2CCC(O2)C1C(=O)Nc1ccccc1Br` (stereo not drawn): the cell number change turned out to be 2.38%. Besides, the AC50 under setting [1] is 29.1 µM [rising, single point]. Take `COc1cc2[nH]c(=S)nc(NCc3ccccn3)c2cc1OC`: the cell number change was -10.5%. Besides, under setting [1], the AC50 is 0.00461 µM [falling, full curve, poor fit]. Consider `O=C(c1ccc(F)cc1)c1cnc(Nc2ccccc2)s1`, for which the cell number change worked out at 21.3%. Moreover, under setting [1], the AC50 was 0.651 µM [falling, single point]. For `CC(NC(=O)[C@H](C)N1C(=O)N2CCc3c([nH]c4ccccc34)[C@@]2(C)C1=O)c1ccccc1` (stereo partly drawn), the cell number change stood at 0.291%. In addition, under setting [1], the AC50 was 2.31 µM [falling, partial curve, poor fit]. Turning to `CCc1ccc(NC2CC(=O)N(CCc3ccc(OC)c(OC)c3)C2=O)cc1` (stereo not drawn), the cell number change came to 44.2%.

As for `CCc1ccc(/C=C2/Sc3ccccc3N(CC(=O)NCCCOC)C2=O)cc1`, the AC50 under setting [2] is 0.731 µM [falling, single point].

Regarding `CCOC(=O)C1C(=O)NCC2CCCC21` (stereo not drawn), the cell number change was -16.5%. Moreover, under setting [1], the AC50 was 2.06 µM [falling, partial curve, poor fit]. `C=CCSC1=N/C(=C/c2ccsc2)C(=O)N1c1ccccc1`: the cell number change turned out to be 12.2%. Further, under setting [1], the AC50 was 1.16 µM [falling, single point]. On to `CCOc1ccc(C(O)(c2ccccc2OC)C(CN2CCCC2)c2ccccc2)cc1` (stereo not drawn), for which the cell number change was -10.1%. For the same compound, under setting [1], the AC50 was 29.1 µM [rising, single point]. With `Cc1ccc(C)c(OCC(=O)Nc2ccc(N3CCOCC3)cc2N2CCOCC2)c1`, the cell number change was 18.8%. Also, the AC50 under setting [1] was 29.1 µM [rising, partial curve, poor fit]. For `CCOc1cccc2c1OC1(C)CC2NC(=O)N1c1cccc(Cl)c1` (stereo not drawn), the cell number change is -23.9%. The concentration at half-maximal activity (AC50) under setting [1] was 10.3 µM [falling, partial curve, poor fit].

With `CCc1nnc(NC(=O)CSc2ccc(-c3nc4ccc(C)cc4[nH]3)cn2)s1`, the cell number change was -29.7%. For the same compound, the AC50 under setting [1] was 29.1 µM [falling, single point]. On to `CCOC(=O)c1sc2nc3n(c(=O)c2c1C)CCC(C)CC3` (stereo not drawn), for which the cell number change came to 6.66%. Moreover, the AC50 under setting [1] was 0.00411 µM [falling, full curve, poor fit]. Take `CCC(=O)Nc1ccc2c(c1)ncn2C`: the cell number change was -9.6%. For the same compound, the AC50 under setting [1] is 4.11 µM [falling, full curve]. With `O=C(NCc1nnc(SCC(=O)N2CCCCC2)o1)c1c(F)cccc1F`, the cell number change is -26.4%. The AC50 under setting [1] was 7.94 µM [falling, partial curve]. Regarding `COc1cc(C#Cc2c(-c3cncn3C)n(C)c3ccc(-c4cnc(OC)nc4)cc23)cc(OC)c1`, the cell number change is -70.5%. Further, the AC50 under setting [2] was 5.8 µM [falling, single point]. In addition, the AC50 under setting [1] is 0.411 µM [rising, partial curve]. `CCCN(C(=O)c1cc(C)ccc1C)c1c(N)n(Cc2ccccc2)c(=O)[nH]c1=O`: the cell number change is -68.3%. In addition, the AC50 under setting [2] is 29.1 µM [falling, single point]. In addition, the AC50 under setting [1] is 0.291 µM [rising, partial curve, poor fit]. In the case of `COc1cc2cc(C(c3nnnn3C3CCCCC3)N(C)C3CCCCC3)c(=O)[nH]c2cc1OC` (stereo not drawn), the cell number change was -58.9%. In addition, the AC50 under setting [2] was 29.1 µM [falling, single point]. Moreover, the AC50 under setting [1] is 18.4 µM [falling, single point]. As for `COc1ccc(NC(=O)c2cn(C)c(=O)c3cc(OC)c(OC)cc23)c(OC)c1`, the AC50 under setting [1] is 0.13 µM [rising, full curve, poor fit]. For `Cc1cccc(Nc2nc(N)nc(CN3CCN(Cc4ccc5c(c4)OCO5)CC3)n2)c1`, the cell number change is -16.7%. Also, under setting [1], the AC50 was 5.8 µM [rising, partial curve, poor fit].

Consider `CCc1ccc(-c2cc(C)no2)cc1S(=O)(=O)Nc1cc(C)on1`, for which the cell number change was 26.9%.

On to `O=C(COC(=O)C1CC2C=CC1C2)Nc1ccccc1` (stereo not drawn), for which the cell number change stood at 1.71%. Moreover, the AC50 under setting [1] was 6.51 µM [rising, partial curve, poor fit]. Consider `CC(=O)Nc1ccc(C(=O)OCC(=O)N2CCC(Cc3ccccc3)CC2)cc1`, for which the AC50 under setting [1] is 29.1 µM [falling, single point]. Take `CC1CC(C)CN(C(=O)COC(=O)c2ccc([N+](=O)[O-])o2)C1` (stereo not drawn): the cell number change was found to be 17%. Further, under setting [1], the AC50 is 0.0411 µM [rising, full curve, poor fit].

As for `COc1ccc(Nc2nc(N)c(C(=O)c3ccc(OC)cc3)s2)cc1`, the cell number change worked out at 16.2%.

For `CC1Cc2ccccc2N1C(=O)C1CCN(S(=O)(=O)Cc2ccccc2)CC1` (stereo not drawn), the cell number change is -7.05%. In the case of `CC(C)[C@H](NC(=O)c1ccccc1Cl)C(=O)OCC(=O)NC(=O)NC1CCCC1`, the cell number change is -30.5%. Under setting [2], the AC50 was 0.00461 µM [falling, full curve, poor fit]. For the compound `Cc1ccc2cccc(OCC(=O)NCc3ccco3)c2n1`, the cell number change is -30%. Moreover, the AC50 under setting [1] is 11.6 µM [falling, single point]. As to `CNC(=S)N(C)[C@H]1c2c(ccc3ccccc23)OC[C@H]1CO`, under setting [1], the AC50 was 0.146 µM [falling, full curve, poor fit]. `COc1cccc(NC(=O)c2nnn(CCc3ccccc3)c2N)c1`: the cell number change is -1.46%. Also, under setting [1], the AC50 is 13 µM [rising, single point]. Consider `COc1ccc(CN(C)C(=O)CCN(c2ccccc2)S(=O)(=O)c2ccc(C)cc2)c(OC)c1`, for which the cell number change was -18.1%. The same measure, in the same setting: the result for `CCSc1nnc(N2C(=O)C(O)=C(C(=O)c3ccco3)C2c2cccc(OC)c2)s1` (stereo not drawn) reads -3.54%.

Regarding `CC(=O)Nc1ccc(NC(=O)c2cc(=O)c3cc(C)cc(C)c3o2)cc1`, the AC50 under setting [2] is 0.184 µM [rising, partial curve] and the AC50 under setting [1] is 5.17 µM [rising, partial curve]. Consider `CCC(NC(=O)CCC(=O)N1CCN(S(=O)(=O)c2ccc(C)cc2)CC1)c1ccc(C)cc1` (stereo not drawn), for which the cell number change was -2.63%. Under setting [1], the AC50 is 29.1 µM [falling, single point]. For the compound `C/C(=N\O)C(C)(C)Nc1ccc(Cl)cc1`, the cell number change worked out at 18.1%.

With `CCCNC(=O)c1ccccc1NC(=O)CN(c1ccccc1OCC)S(C)(=O)=O`, the cell number change was determined as 1.56%. Besides, the AC50 under setting [1] was 8.2 µM [rising, partial curve].

Turning to `COc1ccc(C2CC2/C(=N/OC(=O)c2cccs2)c2ccccc2)cc1` (stereo not drawn), the cell number change worked out at 41.1%. The AC50 under setting [2] is 9.2 µM [rising, partial curve]. In addition, under setting [1], the AC50 was 6.51 µM [falling, single point]. As to `N#CC1=C2N=C(N)c3c(sc4c3CCCCC4)N2C2=C(C(=O)CCC2)C1c1ccccc1` (stereo not drawn), the cell number change is -37.4%. For the same compound, the AC50 under setting [2] was 23.1 µM [falling, single point]. Further, under setting [1], the AC50 is 18.4 µM [falling, single point]. As for `COc1ccc(C(=O)c2cnc3cc4c(cc3c2C)OCO4)cc1`, the cell number change stood at 68.4%. Further, the AC50 under setting [2] is 29.1 µM [rising, single point]. In addition, the AC50 under setting [1] was 5.8 µM [rising, single point]. In the case of `COc1ccccc1OCCNC(=O)C1CCCCC1`, the concentration at half-maximal activity (AC50) under setting [2] was 0.146 µM [falling, full curve, poor fit]. For the compound `Cc1ccc(NCc2nnc(SCc3ccc(C#N)cc3)n2Cc2ccco2)c(C)c1`, the cell number change stood at 7.96%. Further, under setting [1], the AC50 was 4.61 µM [rising, full curve]. `COc1ccc(OC)c(C2N(c3ccc(Cl)cc3)C(=O)C3CCCN32)c1` (stereo not drawn): the cell number change is -19%. Also, the AC50 under setting [2] was 7.31 µM [falling, single point]. In addition, the AC50 under setting [1] is 0.116 µM [falling, full curve].

Turning to `O=c1c2cnn(-c3ccccc3)c2ncn1CCc1ccccc1`, the cell number change was 44.6%. Besides, under setting [2], the AC50 was 11.6 µM [rising, partial curve, poor fit]. Further, the AC50 under setting [1] is 29.1 µM [rising, single point]. With `O=C(O)c1ccc2c(c1)C(=O)N(N1C(=O)c3ccccc3C1=O)C2=O`, the cell number change came to 14.1%. For the same compound, under setting [2], the AC50 is 6.51 µM [falling, single point]. In addition, the AC50 under setting [1] was 6.51 µM [falling, single point]. In the case of `O=P(O)(CCc1ccccn1)CN1CCCCC1`, the cell number change was -0.759%. In addition, under setting [1], the AC50 was 6.51 µM [falling, single point]. As to `O=C(CN1CCCCC1)Nc1cc(S(=O)(=O)N2CCOCC2)ccc1N1CCCC1`, the cell number change is -3.35%. For the same compound, the AC50 under setting [1] is 0.00411 µM [rising, full curve, poor fit].

As for `O=C(CSc1nnc(SCc2ccc(Cl)cc2)s1)N/N=C/c1ccccc1Cl`, the cell number change was -5.63%. Further, the AC50 under setting [1] is 29.1 µM [falling, single point].

As to `Nc1ccc(C(=O)Nc2ccc(Nc3ccncc3)cc2)cc1`, the cell number change is 31.3%. For the same compound, under setting [2], the AC50 was 32.6 µM [rising, single point]. In addition, the AC50 under setting [1] is 2.31 µM [rising, full curve, poor fit]. Regarding `Cc1ccc(-c2nc(N)sc2-c2ccc(C)cc2)cc1`, the cell number change is -50.1%. Besides, the AC50 under setting [2] was 29.1 µM [falling, partial curve]. As for `O=C(Cc1cccc2ccccc12)NNC(=O)c1cccs1`, the cell number change is -28.5%. Also, the AC50 under setting [1] is 16.4 µM [falling, single point]. As to `Cc1cccc(NC(=O)C2CCN(C(=O)c3ccccc3C)CC2)n1`, the cell number change worked out at 4.54%. Consider `CC(=O)c1c(C)[nH]c(C(=O)CSc2nnc(C3CCCCC3)n2N)c1C`, for which the cell number change is 4.37%. Further, under setting [1], the AC50 is 0.146 µM [rising, full curve, poor fit].

As for `O=C(c1scc2c1CCCC2)N1CCCCC1`, the cell number change was -12.6%. Moreover, the half-maximal activity concentration (AC50) under setting [1] is 0.13 µM [falling, full curve, poor fit]. Turning to `Cc1c([N+](=O)[O-])cc(C(=O)Oc2cccc(C(=S)N3CCOCC3)c2)cc1[N+](=O)[O-]`, the cell number change is -34.7%. The AC50 under setting [2] was 29.1 µM [falling, single point].

Regarding `O=C(CCCN=C1NS(=O)(=O)c2ccccc21)OCC(=O)c1ccccc1Cl`, the cell number change was -4.42%. In addition, under setting [2], the AC50 was 0.164 µM [falling, full curve, poor fit]. Take `O=C(Cn1cc(C(=O)c2cccs2)c2ccccc21)NCC1CCCO1` (stereo not drawn): the cell number change is -11.4%. Moreover, under setting [1], the AC50 is 4.61 µM [falling, full curve].
